In publication PMC10957977:
Results are given in words; binding and its absence hold for the method and conditions named. For part of these data: Binding seen in cells or lysates may run through a third protein. Some results given as binding are weak or reduced against the parent protein; the word gives no strength. Each block holds one substance with its values, some of them ahead of it.

The chains behind the UniProt entries cited, without tags or fusion partners. Where a name states a change or a piece, a line headed by the entry shows the natural chain unless it says otherwise. A line that says so, or that is headed by a name, gives the form on record, which may keep a tag or linker.
UniProt O15372: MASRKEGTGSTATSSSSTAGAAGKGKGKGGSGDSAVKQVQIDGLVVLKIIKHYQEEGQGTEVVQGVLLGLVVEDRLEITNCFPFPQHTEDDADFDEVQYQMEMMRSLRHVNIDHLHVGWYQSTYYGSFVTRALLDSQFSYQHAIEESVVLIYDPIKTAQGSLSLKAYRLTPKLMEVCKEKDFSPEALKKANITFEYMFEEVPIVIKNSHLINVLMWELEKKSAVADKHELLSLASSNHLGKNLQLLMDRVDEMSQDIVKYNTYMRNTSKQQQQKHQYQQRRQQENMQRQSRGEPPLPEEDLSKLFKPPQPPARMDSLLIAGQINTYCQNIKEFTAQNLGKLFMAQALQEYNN
EIF3H^DDQ/AAA (O15372, form named): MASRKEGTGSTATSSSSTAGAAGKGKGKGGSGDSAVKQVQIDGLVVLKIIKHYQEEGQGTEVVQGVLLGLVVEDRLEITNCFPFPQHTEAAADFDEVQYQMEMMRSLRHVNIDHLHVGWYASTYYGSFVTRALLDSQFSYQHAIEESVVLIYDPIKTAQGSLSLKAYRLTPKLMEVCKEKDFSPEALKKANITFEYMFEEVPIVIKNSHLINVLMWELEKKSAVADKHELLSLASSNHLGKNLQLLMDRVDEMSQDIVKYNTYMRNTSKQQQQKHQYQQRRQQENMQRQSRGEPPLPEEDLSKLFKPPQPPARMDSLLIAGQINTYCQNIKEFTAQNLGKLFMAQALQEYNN
EIF3H^YW/AA (O15372, form named): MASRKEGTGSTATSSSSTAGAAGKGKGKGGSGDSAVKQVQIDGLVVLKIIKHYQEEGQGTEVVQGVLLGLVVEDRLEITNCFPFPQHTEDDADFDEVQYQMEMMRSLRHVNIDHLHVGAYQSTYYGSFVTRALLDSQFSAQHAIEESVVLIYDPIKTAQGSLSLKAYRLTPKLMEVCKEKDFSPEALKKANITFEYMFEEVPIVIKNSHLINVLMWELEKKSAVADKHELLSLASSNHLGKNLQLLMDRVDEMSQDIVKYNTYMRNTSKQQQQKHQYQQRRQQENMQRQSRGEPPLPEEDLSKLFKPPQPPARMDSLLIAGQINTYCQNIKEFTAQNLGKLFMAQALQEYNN
UniProt Q9Y297: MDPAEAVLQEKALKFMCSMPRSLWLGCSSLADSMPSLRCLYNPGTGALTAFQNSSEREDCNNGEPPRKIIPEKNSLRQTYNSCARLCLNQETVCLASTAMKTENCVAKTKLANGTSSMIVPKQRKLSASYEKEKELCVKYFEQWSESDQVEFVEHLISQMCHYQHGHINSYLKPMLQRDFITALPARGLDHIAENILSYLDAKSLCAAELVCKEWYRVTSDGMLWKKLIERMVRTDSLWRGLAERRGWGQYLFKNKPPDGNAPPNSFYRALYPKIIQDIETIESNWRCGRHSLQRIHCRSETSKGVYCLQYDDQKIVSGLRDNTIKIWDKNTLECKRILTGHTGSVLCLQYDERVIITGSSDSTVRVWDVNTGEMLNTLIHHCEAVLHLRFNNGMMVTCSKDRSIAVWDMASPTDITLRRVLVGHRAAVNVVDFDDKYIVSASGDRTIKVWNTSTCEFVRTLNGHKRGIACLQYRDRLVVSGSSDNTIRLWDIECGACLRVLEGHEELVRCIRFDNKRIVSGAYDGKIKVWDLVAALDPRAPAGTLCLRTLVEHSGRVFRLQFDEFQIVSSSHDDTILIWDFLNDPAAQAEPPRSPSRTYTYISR
UniProt P27361: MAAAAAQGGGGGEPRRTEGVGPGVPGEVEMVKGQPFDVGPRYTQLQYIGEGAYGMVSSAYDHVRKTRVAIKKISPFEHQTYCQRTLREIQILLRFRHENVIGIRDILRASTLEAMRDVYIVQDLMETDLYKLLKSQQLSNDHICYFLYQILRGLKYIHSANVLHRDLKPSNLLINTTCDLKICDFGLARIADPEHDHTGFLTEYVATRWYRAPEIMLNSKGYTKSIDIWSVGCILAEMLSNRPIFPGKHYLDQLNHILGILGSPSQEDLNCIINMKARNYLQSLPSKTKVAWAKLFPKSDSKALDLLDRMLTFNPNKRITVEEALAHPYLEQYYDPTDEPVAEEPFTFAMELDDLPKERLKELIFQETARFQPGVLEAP

Assays:
Flag-HAX1 in HEK293T = Flag-HAX1 in HEK293T (UniProt O00165); experiment: co-IP; HEK293T cells transfected with Flag- or Myc-tagged bait (in some panels with increasing HA-HAX1); NP-40 buffer (50 mM Tris-HCl pH 7.5, 150 mM NaCl, 1 mM EDTA, 0.1% NP-40, 0.1% Triton); anti-Flag M2 beads or anti-Myc magnetic beads, 4 °C, 3-4 h; immunoblot
Flag-RAF1 in HCT116 = Flag-RAF1 in HCT116 (UniProt P04049); experiment: co-IP; HCT116 cells (shCtrl, shHAX1 or shEIF3H, with or without HA-HAX1) transfected with Flag-RAF1 and/or Myc-RAF1; anti-Flag M2 or anti-Myc beads; immunoblot
Flag-RAF1 in HEK293T = Flag-RAF1 in HEK293T (UniProt P04049); experiment: co-IP; HEK293T cells transfected with Flag- or Myc-tagged bait (in some panels with increasing HA-HAX1); NP-40 buffer (50 mM Tris-HCl pH 7.5, 150 mM NaCl, 1 mM EDTA, 0.1% NP-40, 0.1% Triton); anti-Flag M2 beads or anti-Myc magnetic beads, 4 °C, 3-4 h; immunoblot
[1] = molecular target: EIF3H, endogenous in HCT116 (human (endogenous in HCT116)) (UniProt O15372); experiment: SEC; HCT116 (shCtrl and shEIF3H) cell extract, about 5 mg protein, on Superose 6 Increase 10/300 GL in cold PBS; fractions analysed by western blot
[2] = molecular target: EIF3H, endogenous in HCT116 (human (endogenous in HCT116)) (UniProt O15372); experiment: co-IP; endogenous proteins, HCT116 lysate; primary antibody overnight at 4 °C and Protein A/G Sepharose; rabbit IgG as control; immunoblot
[3] = molecular target: EIF3H, endogenous in HCT116 (human (endogenous in HCT116)) (UniProt O15372); experiment: proximity ligation; in situ PLA (Duolink) on fixed HCT116 cells with rabbit anti-HAX1 and mouse anti-EIF3H antibodies
[4] = molecular target: myc-EIF3H (1-352, full length), wild type (UniProt O15372); experiment: co-IP; wild-type and point-mutant EIF3H with HAX1 (Supplementary Fig. 5b); cells, bait and beads not told
EIF3H^DDQ/AAA = EIF3H^DDQ/AAA (UniProt O15372); experiment: as above
EIF3H^YW/AA = EIF3H^YW/AA (UniProt O15372); experiment: as above
Flag-βTrCP in HEK293T = Flag-βTrCP in HEK293T (UniProt Q9Y297); experiment: co-IP; HEK293T cells transfected with Flag- or Myc-tagged bait (in some panels with increasing HA-HAX1); NP-40 buffer (50 mM Tris-HCl pH 7.5, 150 mM NaCl, 1 mM EDTA, 0.1% NP-40, 0.1% Triton); anti-Flag M2 beads or anti-Myc magnetic beads, 4 °C, 3-4 h; immunoblot
[5] = molecular target: Flag-EIF3H (1-352, full length) in HEK293T (UniProt O15372); experiment: as above
[6] = molecular target: Flag-RAF1-GFP, full length (UniProt P04049); experiment: as above
[7] = molecular target: HAX1 (HS1 associated protein X-1), endogenous in HCT116 (human (endogenous in HCT116)) (UniProt O00165); experiment: co-IP; endogenous proteins, HCT116 lysate; primary antibody overnight at 4 °C and Protein A/G Sepharose; rabbit IgG as control; immunoblot
[8] = molecular target: Flag-HAX1 S232D/T236D mutant (2DD) (UniProt O00165); experiment: co-IP; HEK293T cells transfected with Flag- or Myc-tagged bait (in some panels with increasing HA-HAX1); NP-40 buffer (50 mM Tris-HCl pH 7.5, 150 mM NaCl, 1 mM EDTA, 0.1% NP-40, 0.1% Triton); anti-Flag M2 beads or anti-Myc magnetic beads, 4 °C, 3-4 h; immunoblot
[9] = molecular target: Flag-HAX1 S232A/T236A mutant (2AA) (UniProt O00165); experiment: as above

binding (Flag-HAX1 in HEK293T): binds
Substance: EIF3H, endogenous in HEK293T (from UniProt O15372 1-352)

binding (Flag-RAF1 in HCT116): binds
Substance: ERK1, endogenous in HCT116 (from UniProt P27361 1-379)

binding (Flag-RAF1 in HEK293T): binds
Substance: ERK1, endogenous in HEK293T (from UniProt P27361 1-379)

binding (Flag-RAF1 in HCT116): binds
Substance: ERK2, endogenous in HCT116 (from UniProt P28482 1-360)

binding (Flag-RAF1 in HEK293T): binds
Substance: ERK2, endogenous in HEK293T (from UniProt P28482 1-360)

binding [1]: binds
binding [2]: binds
binding [3]: binds
Substance: HAX1 (HS1 associated protein X-1), endogenous in HCT116 (from UniProt O00165 1-279)

binding [4]: binds
binding (EIF3H^DDQ/AAA): binds
binding (EIF3H^YW/AA): binds
Substance: HAX1 (co-IP of Supplementary Fig. 5b) (from UniProt O00165 1-279)

binding (Flag-βTrCP in HEK293T): binds
binding [5]: binds
binding (Flag-RAF1 in HEK293T): binds
binding [6]: binds
Substance: HAX1, endogenous in HEK293T (from UniProt O00165 1-279)

binding [7]: binds
Substance: RAF1, endogenous in HCT116 (from UniProt P04049 1-648)

binding (Flag-HAX1 in HEK293T): binds
Substance: RAF1, endogenous in HEK293T (from UniProt P04049 1-648)

binding [7]: binds
Substance: βTrCP, endogenous in HCT116 (from UniProt Q9Y297 1-605)

binding (Flag-HAX1 in HEK293T): binds
binding [8]: binds
binding [9]: no binding
Substance: βTrCP, endogenous in HEK293T (from UniProt Q9Y297 1-605)
